{"source": "patent US10723764B2", "about": "“Anti-microbial peptides and methods of use thereof” (priority 2011, dated 2020)", "test_system": "human erythrocytes", "details": "for cell selectivity index (ratio between HL50 and MIC): MIC of 3.1 μM used", "description": "Peptide hemolysis was assayed using an established protocol (Malmsten et al. (2011) PLoS One 6:e16400). In brief, fresh blood, obtained from the UNMC Blood Bank, was washed three times with PBS buffer and made into a 5% solution. To 90 μL of this solution, 10 μL of a peptide solution was added and incubated at 37° C. for one hour. After centrifugation at 13,000 rpm, aliquots of the supernatant were transferred to a fresh 96 well microplate. The absorbance of the solutions was measured at 545 nm to detect the amount of hemoglobin released. The percent lysis was calculated by assuming 100% release when treated with 2% Triton X-100 and no lysis (0%) when treated with PBS buffer. HL50 was the peptide concentration that caused 50% lysis of human erythrocytes. The cell selectivity (CS) indexes were calculated as the ratio of HL50 to the MIC of the peptide against S. aureus USA300.\nThe hemolytic effects of the six peptides were also compared on human red blood cells (hRBC) using an established protocol (Malmsten et al. (2011) PLoS One 6:e16400). […] A high TI indicates good cell selectivity.\nPeptide hemolysis was assayed using an established protocol (Menousek et al. (2012) Int. J. Antimicrob. Agents 39:402-406; Malmsten et al. (2011) PLoS One 6:e16400). Briefly, blood cells were washed three times with phosphate-buffered saline (PBS) and were diluted to a 5% solution. Following peptide treatment, incubation at 37° C. for 1 hour and centrifugation at 13,000 rpm, aliquots of the supernatant were transferred to a fresh 96-well microplate. To assess peptide cytotoxicity, the amount of hemoglobin released was measured at 545 nm. Percent lysis was calculated by assuming 100% release when human blood cells were treated with 2% Triton X-100 and 0% release when they were incubated with PBS buffer.", "note": "Where a SMILES comes first, the peptide text is derived from it. [ ]: non-standard residue; d: D form. Phe(4-CF3) = N[C@@H](Cc1ccc(C(F)(F)F)cc1)C(=O)O; Bip = N[C@@H](Cc1ccc(-c2ccccc2)cc1)C(=O)O; 2Nal = N[C@@H](Cc1ccc2ccccc2c1)C(=O)O"}
{"smiles": "CC(C)C[C@H](NC(=O)[C@H](CC(N)=O)NC(=O)[C@H](CCCNC(=N)N)NC(=O)[C@@H](CC(C)C)NC(=O)[C@H](Cc1ccc2ccccc2c1)NC(=O)[C@H](CC(=O)O)NC(=O)[C@H](CCCCN)NC(=O)[C@@H](CC(C)C)NC(=O)[C@H](CCCNC(=N)N)NC(=O)[C@H](CCC(N)=O)NC(=O)[C@@H](NC(=O)[C@@H](CC(C)C)NC(=O)[C@H](CCCNC(=N)N)NC(=O)[C@H](CCCCN)NC(=O)[C@H](Cc1ccc(C(F)(F)F)cc1)NC(=O)CN)C(C)C)C(=O)N[C@H](C(N)=O)C(C)C", "note": "[17mF-Naph, GX1KRLVQRLKDX2LRNLV] (H-G[Phe(4-CF3)]KR[dL]VQR[dL]KD[2Nal][dL]RNLV-NH2)", "values": [{"measurement": "cell selectivity index (ratio between HL50 and MIC)", "result": 161}]}
{"smiles": "CC(C)C[C@H](NC(=O)[C@H](CC(N)=O)NC(=O)[C@H](CCCNC(=N)N)NC(=O)[C@@H](CC(C)C)NC(=O)[C@H](Cc1ccc(C(F)(F)F)cc1)NC(=O)[C@H](CC(=O)O)NC(=O)[C@H](CCCCN)NC(=O)[C@@H](CC(C)C)NC(=O)[C@H](CCCNC(=N)N)NC(=O)[C@H](CCC(N)=O)NC(=O)[C@@H](NC(=O)[C@@H](CC(C)C)NC(=O)[C@H](CCCNC(=N)N)NC(=O)[C@H](CCCCN)NC(=O)[C@H](Cc1ccc2ccccc2c1)NC(=O)CN)C(C)C)C(=O)N[C@H](C(N)=O)C(C)C", "note": "[17Naph-mF, GX1KRLVQRLKDX2LRNLV] (H-G[2Nal]KR[dL]VQR[dL]KD[Phe(4-CF3)][dL]RNLV-NH2)", "values": [{"measurement": "cell selectivity index (ratio between HL50 and MIC)", "result": 306}]}
{"smiles": "CC(C)C[C@H](NC(=O)[C@H](CC(N)=O)NC(=O)[C@H](CCCNC(=N)N)NC(=O)[C@@H](CC(C)C)NC(=O)[C@H](Cc1ccc(-c2ccccc2)cc1)NC(=O)[C@H](CC(=O)O)NC(=O)[C@H](CCCCN)NC(=O)[C@@H](CC(C)C)NC(=O)[C@H](CCCNC(=N)N)NC(=O)[C@H](CCC(N)=O)NC(=O)[C@@H](NC(=O)[C@@H](CC(C)C)NC(=O)[C@H](CCCNC(=N)N)NC(=O)[C@H](CCCCN)NC(=O)[C@H](Cc1ccc(-c2ccccc2)cc1)NC(=O)CN)C(C)C)C(=O)N[C@H](C(N)=O)C(C)C", "note": "[D128A, GX1KRLVQRLKDX2LRNLV-amide] (H-G[Bip]KR[dL]VQR[dL]KD[Bip][dL]RNLV-NH2)", "values": [{"measurement": "therapeutic index (hemolytic activity/MIC)", "setting": "150/5, S. aureus USA300", "result": 30}, {"measurement": "cell selectivity index (ratio between HL50 and MIC)", "result": 72}]}
